Results reported in paper PMC6896172, “Successful Targeting of the Warburg Effect in Prostate Cancer by Glucose-Conjugated 1,4-Naphthoquinones” (Cancers, 2019).
The source gives many values for each of these; only a part stands here.

Test system: 22Rv1 cells
Test: Global proteome analysis (LC-MS/MS, DIA) of differentially expressed proteins
Type: cell-based, human
Description: 22Rv1 cells were seeded in T75 culture bottles (4 × 10^6 cells/bottle in 20 mL/bottle), treated for 48 h with the 5 µM of compound 11 or vehicle (DMSO), harvested by scratching, washed twice with ice-cold PBS and flash-frozen. Cells were lysed and sonicated. The protein extracts were then heat-denaturated, reduced, alkylated and digested by trypsin. Peptides were chromatographically separated using full recovery autosampler vials and a nano-UPLC system (Acquity, Waters Corporation, Milford, MS, USA), coupled via electrospray ionization (ESI) to a tandem mass spectrometer equipped with a quadrupole and an orbitrap (QExactive, Thermo Fisher Scientific, Bremen, Germany), using MS/MS mode in data dependent acquisition (DDA) and data independent acquisition (DIA). The peptides, analyzed with DDA-LC-MS/MS, were identified with the search engine Sequest, integrated in the Proteome Discoverer software version 2.0 (Thermo Fischer Scientific) using the human Uniprot protein database (EMBL; Hinxton Cambridge, UK, release December 2018). […] For the details of sample preparation and proceeding, data acquisition and analysis see the Supplementary information. […]
serum (FBS, Invitrogen) and 1% penicillin/streptomycin (Invitrogen)). […]
Cell lines were lysed in 100 mM triethylammonium bicarbonate and 1% w/v sodium deoxycholate buffer followed by probe sonication to destroy polynucleotides and heat induce protein denaturing at 99 °C for 5 min. Protein concentrations were estimated with a bicinchonic acid (BCA) protein assay (Thermo Fisher Scientific, Bremen, Germany). 20 µg of protein were reduced in presence of 10 mM dithiotreithol (Sigma Aldrich) for 30 min at 60 °C followed by cysteine alkylation with 20 mM iodo acetamide (Sigma Aldrich) for 30 min at 37 °C in the dark and enzymatic degradation with sequencing grade trypsin (Promega) over night at 37 °C. Digestion was quenched with 1% formic acid (FA), precipitated sodium deoxycholate removed by centrifugation for 5 min at 14,000 g and the supernatant was dried in a vacuum centrifuge.
LC-MS/MS in Data Dependent and Data Independent Mode
Samples were resuspended in 0.1% FA and transferred into a full recovery autosampler vial (Waters). Chromatographic separation was achieved on a nano -UPLC system (Acquity, Waters Corporation, Milford, MS, USA) with a two-buffer-system (buffer A: 0.1% FA in water, buffer B:
0.1% FA in Acetonitrile (ACN), both at pH = 3). Attached to the UPLC was a reversed -phase peptide trapping column (Symmetry C18, 180 µm × 20 mm, 100 Å pore size, 5 µm particle size) for desalting, followed by a reversed-phase capillary separation of the tryptic peptides (BEH C18; 75 µm × 200 mm, 130 Å pore size, 1.7 µm particle size), using a 60 min gradient with increasing ACN concentration from 2–30% ACN. The eluting peptides were analyzed on a quadrupole-orbitrap mass spectrometer (QExactive, Thermo Fisher Scientific, Bremen, Germany) in data dependent acquisition (DDA) and data independent acquisition (DIA) for quantification.
In DDA mode, one replicate of each cell line was randomly chosen and 1 µg per sample was used per LC-MS/MS run to build a reference spectral library used for data extraction of samples acquired in DIA mode. For DDA, the 12 most intense ions per precursor scan (1 × 10 6 ions, 70,000 Resolution, 120 ms fill time) were analyzed by MS/MS (HCD at 25 normalized collision energy, 1 × 105 ions, 17,500 Resolution, 50 ms fill time) in a range of 400–1300 m/z. A dynamic precursor exclusion of 20 s was used. For DIA, 1 µg of each sample was analyzed using a 30 sequential 20 Da fixed window method covering the mass range from 400 –1000 m/z. Per cycle, 2 precursor scans (1 × […]
28 normalized collision energy, 1 × 106 ions, 17,500 Resolution, 50 ms fill time) were performed.
After the first precursor scan, 15 MS/MS scans were performed covering the precursor mass range from 400–700 m/z followed by the second precursor scan and another 15 MS/MS scans ranging from […]
LC-MS/MS Data Processing and Analysis […]

CC1(C)OC2OC(C(O)COC3=CC(=O)c4cccc(O)c4C3=O)C(O)C2O1 (centres unmarked) [Compound 11]
Fold change (treated / control) (2AAA_HUMAN P30153): 1.251
Fold change (treated / control) (6PGL_HUMAN O95336): 1.328
Fold change (treated / control) (1433E_HUMAN P62258): 1.343
Fold change (treated / control) (1433Z_HUMAN P63104): 1.228
Fold change (treated / control) (AATC_HUMAN P17174): 1.532
Fold change (treated / control) (AATM_HUMAN P00505): 1.121
Fold change (treated / control) (ABCE1_HUMAN P61221): 0.5106
Fold change (treated / control) (ABHEB_HUMAN Q96IU4): 1.254
Fold change (treated / control) (ABRAL_HUMAN Q9P1F3): 1.957
Fold change (treated / control) (ACAP1_HUMAN Q15027): 1.421
Fold change (treated / control) (ACON_HUMAN Q99798): 0.6906
Fold change (treated / control) (ACTBL_HUMAN Q562R1): 1.3723
Fold change (treated / control) (ACTB_HUMAN P60709): 1.585
Fold change (treated / control) (ACTG_HUMAN P63261): 1.692
Fold change (treated / control) (ACTN4_HUMAN O43707): 1.276
Fold change (treated / control) (AGR2_HUMAN O95994): 3.629
Fold change (treated / control) (AHDC1_HUMAN Q5TGY3): 1.829
Fold change (treated / control) (AK1C2_HUMAN P52895): 5.517
Fold change (treated / control) (AL4A1_HUMAN P30038): 0.7522
Fold change (treated / control) (AL9A1_HUMAN P49189): 1.232
Fold change (treated / control) (ALDOA_HUMAN P04075): 1.319
Fold change (treated / control) (ALDOC_HUMAN P09972): 1.376
Fold change (treated / control) (AN32A_HUMAN P39687): 1.403
Fold change (treated / control) (ANXA2_HUMAN P07355): 3.158
Fold change (treated / control) (ANXA4_HUMAN P09525): 1.211
Fold change (treated / control) (ANXA5_HUMAN P08758): 1.264
Fold change (treated / control) (ANXA7_HUMAN P20073): 1.193
Fold change (treated / control) (AP1B1_HUMAN Q10567): 0.9203
Fold change (treated / control) (APMAP_HUMAN Q9HDC9): 1.936
Fold change (treated / control) (APOC3_HUMAN P02656): 2.01
Fold change (treated / control) (APOE_HUMAN P02649): 1.93
Fold change (treated / control) (ARID2_HUMAN Q68CP9): 0.5698
Fold change (treated / control) (ARP5L_HUMAN Q9BPX5): 1.173
Fold change (treated / control) (ARSA_HUMAN P15289): 1.315
Fold change (treated / control) (ASAH1_HUMAN Q13510): 1.91
Fold change (treated / control) (ASNA_HUMAN O43681): 1.156
Fold change (treated / control) (AT1B1_HUMAN P05026): 1.129
Fold change (treated / control) (AT5F1_HUMAN P24539): 0.4995
Fold change (treated / control) (ATAD2_HUMAN Q6PL18): 0.5339
Fold change (treated / control) (ATP5I_HUMAN P56385): 1.217
Fold change (treated / control) (BABA2_HUMAN Q9NXR7): 1.187
Fold change (treated / control) (BACH_HUMAN O00154): 1.178
Fold change (treated / control) (BAZ1B_HUMAN Q9UIG0): 0.5909
Fold change (treated / control) (BCLF1_HUMAN Q9NYF8): 1.362
Fold change (treated / control) (BIP_HUMAN P11021): 1.103
Fold change (treated / control) (BRD1_HUMAN O95696): 0.5595
Fold change (treated / control) (C1TC_HUMAN P11586): 0.9204
Fold change (treated / control) (C10_HUMAN Q99622): 0.6968
Fold change (treated / control) (CAB45_HUMAN Q9BRK5): 0.5255
Fold change (treated / control) (CALX_HUMAN P27824): 1.1778
Fold change (treated / control) (CATD_HUMAN P07339): 1.307
Fold change (treated / control) (CAZA1_HUMAN P52907): 1.365
Fold change (treated / control) (CBX3_HUMAN Q13185): 0.7648
Fold change (treated / control) (CBX5_HUMAN P45973): 0.6078
Fold change (treated / control) (CCD86_HUMAN Q9H6F5): 0.6454
Fold change (treated / control) (CD2AP_HUMAN Q9Y5K6): 1.736
Fold change (treated / control) (CHCH5_HUMAN Q9BSY4): 0.3153
Fold change (treated / control) (CHPT1_HUMAN Q8WUD6): 0.4101
Fold change (treated / control) (CHTOP_HUMAN Q9Y3Y2): 0.4309
Fold change (treated / control) (CISD1_HUMAN Q9NZ45): 0.6534
Fold change (treated / control) (CK054_HUMAN Q9H0W9): 1.355
Fold change (treated / control) (CKAP4_HUMAN Q07065): 1.512
Fold change (treated / control) (CLIC1_HUMAN O00299): 1.368
Fold change (treated / control) (CLPT1_HUMAN O96005): 0.5334
Fold change (treated / control) (CLUS_HUMAN P10909): 0.6547
Fold change (treated / control) (CMTD1_HUMAN Q86VU5): 0.6695
Fold change (treated / control) (CNDP2_HUMAN Q96KP4): 1.166
Fold change (treated / control) (COA7_HUMAN Q96BR5): 0.6927
Fold change (treated / control) (COASY_HUMAN Q13057): 0.6716
Fold change (treated / control) (COF1_HUMAN P23528): 1.524
Fold change (treated / control) (COPE_HUMAN O14579): 1.293
Fold change (treated / control) (COPZ1_HUMAN P61923): 1.267
Fold change (treated / control) (COR1C_HUMAN Q9ULV4): 1.273
Fold change (treated / control) (COX17_HUMAN Q14061): 0.3991
Fold change (treated / control) (CPIN1_HUMAN Q6FI81): 0.457
Fold change (treated / control) (CPSF7_HUMAN Q8N684): 0.5898
Fold change (treated / control) (CREL2_HUMAN Q6UXH1): 0.7362
Fold change (treated / control) (CSDE1_HUMAN O75534): 0.3966
Fold change (treated / control) (CSK2B_HUMAN P67870): 1.254
Fold change (treated / control) (CSN5_HUMAN Q92905): 1.871
Fold change (treated / control) (CSN6_HUMAN Q7L5N1): 1.335
Fold change (treated / control) (CTNB1_HUMAN P35222): 0.7244
Fold change (treated / control) (CTXN1_HUMAN P60606): 2.673
Fold change (treated / control) (CX6B1_HUMAN P14854): 0.5635
Fold change (treated / control) (CX7A2_HUMAN P14406): 1.309
Fold change (treated / control) (CYB5B_HUMAN O43169): 1.699
Fold change (treated / control) (CYTB_HUMAN P04080): 1.925
Fold change (treated / control) (CYTC_HUMAN P01034): 0.3985
Fold change (treated / control) (DCAKD_HUMAN Q8WVC6): 0.4938
Fold change (treated / control) (DDB1_HUMAN Q16531): 0.7393
Fold change (treated / control) (DDI2_HUMAN Q5TDH0): 1.4255
Fold change (treated / control) (DDRGK_HUMAN Q96HY6): 1.251
Fold change (treated / control) (DDX5_HUMAN P17844): 0.5576
Fold change (treated / control) (DDX21_HUMAN Q9NR30): 0.6203
Fold change (treated / control) (DDX27_HUMAN Q96GQ7): 0.7632
Fold change (treated / control) (DDX50_HUMAN Q9BQ39): 0.5638
Fold change (treated / control) (DDX52_HUMAN Q9Y2R4): 0.5706
Fold change (treated / control) (DDX56_HUMAN Q9NY93): 0.5433
Fold change (treated / control) (DEK_HUMAN P35659): 0.84
Fold change (treated / control) (DESP_HUMAN P15924): 0.5753
Fold change (treated / control) (DEST_HUMAN P60981): 1.708
